Measured values from article PMC11315126.
No constants are given. Whether binding was seen depends on the method and setting. For part of these data: Sequences can lack the tags named with a protein.

What was measured:
Assay in all cases: SEC; analytical UPLC, Zenix SEC-150, 1.0 mL/min, proteins at 19 μM in 20 mM HEPES pH 7.5, 150 mM NaCl, without DTT; mixtures kept on ice for at least 30 min; compared with gel filtration standards; both purified
[1] = target: T1, His6TraW (E. coli F plasmid) (UniProt P18472)
T1 sequence: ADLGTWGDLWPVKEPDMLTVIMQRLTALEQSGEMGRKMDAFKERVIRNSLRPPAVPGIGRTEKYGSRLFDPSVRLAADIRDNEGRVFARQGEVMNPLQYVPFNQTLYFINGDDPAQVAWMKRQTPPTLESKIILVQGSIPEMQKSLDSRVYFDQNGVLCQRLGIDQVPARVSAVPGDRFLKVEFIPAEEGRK

[2] = target: T2, His6ΔTraW (aa 51–210) (E. coli F plasmid) (UniProt P18472)
T2 sequence: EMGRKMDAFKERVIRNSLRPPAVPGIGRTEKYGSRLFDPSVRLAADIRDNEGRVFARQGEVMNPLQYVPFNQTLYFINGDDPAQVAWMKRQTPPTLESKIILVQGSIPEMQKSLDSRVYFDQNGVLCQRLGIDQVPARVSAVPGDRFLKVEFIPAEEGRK

[3] = target: TrbBWT (E. coli F plasmid) (UniProt P18035)

Measured: binding

B1: TrbBWT (enzyme, UniProt P18035 23-181)
chain: RDEIERLWNPQGMATQPAQPAAGTSARTAKPAPRWFRLSNGRQVNLADWKVVLFMQGHCPYCHQFDPVLKQLAQQYGFSVFSYTLDGQGDTAFPEALPVPPDVMQTFFPNIPVATPTTFLVNVNTLEALPLLQGATDAAGFMARVDTVLQMYGGKKGAK
no binding (tested: 19 μM): all assays above
